# In paper PMC7302877:
# Chains of the proteins cited; added tags and fusions are not shown. Lines headed by an entry give the natural chain unless they say otherwise; changes in a name come on top.
# UniProt P49910: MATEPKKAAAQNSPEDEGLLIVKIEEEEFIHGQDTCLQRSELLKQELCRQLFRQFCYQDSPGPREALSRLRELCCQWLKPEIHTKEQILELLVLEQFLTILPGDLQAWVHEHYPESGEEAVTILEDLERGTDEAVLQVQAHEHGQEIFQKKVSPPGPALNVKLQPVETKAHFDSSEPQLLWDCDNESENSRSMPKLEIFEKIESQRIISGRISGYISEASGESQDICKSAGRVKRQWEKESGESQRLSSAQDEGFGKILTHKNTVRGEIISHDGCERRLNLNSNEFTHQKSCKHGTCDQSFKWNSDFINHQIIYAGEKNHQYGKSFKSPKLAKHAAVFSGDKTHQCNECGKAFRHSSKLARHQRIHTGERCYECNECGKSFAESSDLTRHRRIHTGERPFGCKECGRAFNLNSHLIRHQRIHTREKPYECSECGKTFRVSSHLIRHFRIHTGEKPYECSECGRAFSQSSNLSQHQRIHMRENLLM
# Results are given in words; binding and its absence hold for the method and conditions named. Binding seen in cells or lysates may run through a third protein. Tags and fused reporters may be left off the sequences shown.
# Molecular target: T1, ZNF446-V5 (UniProt Q9NWS9)
# T1 sequence: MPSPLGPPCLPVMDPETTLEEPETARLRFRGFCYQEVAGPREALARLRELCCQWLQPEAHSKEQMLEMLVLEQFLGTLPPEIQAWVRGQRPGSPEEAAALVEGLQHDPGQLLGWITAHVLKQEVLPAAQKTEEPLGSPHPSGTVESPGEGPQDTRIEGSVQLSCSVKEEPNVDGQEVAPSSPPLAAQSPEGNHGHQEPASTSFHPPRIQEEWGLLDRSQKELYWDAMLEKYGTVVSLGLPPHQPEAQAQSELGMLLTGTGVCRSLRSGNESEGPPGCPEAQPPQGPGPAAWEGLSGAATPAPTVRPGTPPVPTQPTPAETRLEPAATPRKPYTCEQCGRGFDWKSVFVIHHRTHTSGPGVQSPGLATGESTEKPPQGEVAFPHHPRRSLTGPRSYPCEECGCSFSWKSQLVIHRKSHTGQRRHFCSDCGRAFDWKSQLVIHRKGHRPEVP
# Experiment: co-IP; co-expression in HEK293T for 48 h; lysis in non-denaturing buffer (50 mM HEPES pH 7.4, 150 mM NaCl, 1% Triton X-100, 0.5% sodium deoxycholate); immunoprecipitation with HA or V5 antibody at 4°C; three washes in the buffer and one with 500 mM NaCl; immunoblot
substance,measurement,value
ZNF165-myc with the SCAN domain deleted (from UniProt P49910),binding,no binding
